{
  "sequences": {"note": "Sequences of proteins named here, by UniProt entry; tags and fusion partners are left off. A change or cut given only in a name is not applied to a line headed by its entry.", "UniProt Q8N7R7": "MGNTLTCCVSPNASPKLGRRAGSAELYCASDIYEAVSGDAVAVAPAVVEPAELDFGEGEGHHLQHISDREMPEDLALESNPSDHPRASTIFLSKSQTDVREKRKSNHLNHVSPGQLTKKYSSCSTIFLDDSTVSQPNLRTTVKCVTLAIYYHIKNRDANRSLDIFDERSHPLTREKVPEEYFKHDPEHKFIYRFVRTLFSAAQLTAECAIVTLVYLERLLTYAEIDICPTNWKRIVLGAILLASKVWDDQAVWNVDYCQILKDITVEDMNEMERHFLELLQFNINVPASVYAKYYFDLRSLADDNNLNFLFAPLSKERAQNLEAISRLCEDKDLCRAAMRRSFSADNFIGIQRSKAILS", "UniProt P33681, whole entry, looked up": "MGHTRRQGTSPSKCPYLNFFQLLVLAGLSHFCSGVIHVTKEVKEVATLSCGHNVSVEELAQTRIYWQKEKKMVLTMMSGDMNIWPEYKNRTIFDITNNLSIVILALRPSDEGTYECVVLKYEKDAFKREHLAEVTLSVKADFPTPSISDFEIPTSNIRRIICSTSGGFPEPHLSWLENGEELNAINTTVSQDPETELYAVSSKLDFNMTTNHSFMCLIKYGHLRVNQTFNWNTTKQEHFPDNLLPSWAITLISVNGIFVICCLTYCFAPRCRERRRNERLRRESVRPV", "UniProt P30307": "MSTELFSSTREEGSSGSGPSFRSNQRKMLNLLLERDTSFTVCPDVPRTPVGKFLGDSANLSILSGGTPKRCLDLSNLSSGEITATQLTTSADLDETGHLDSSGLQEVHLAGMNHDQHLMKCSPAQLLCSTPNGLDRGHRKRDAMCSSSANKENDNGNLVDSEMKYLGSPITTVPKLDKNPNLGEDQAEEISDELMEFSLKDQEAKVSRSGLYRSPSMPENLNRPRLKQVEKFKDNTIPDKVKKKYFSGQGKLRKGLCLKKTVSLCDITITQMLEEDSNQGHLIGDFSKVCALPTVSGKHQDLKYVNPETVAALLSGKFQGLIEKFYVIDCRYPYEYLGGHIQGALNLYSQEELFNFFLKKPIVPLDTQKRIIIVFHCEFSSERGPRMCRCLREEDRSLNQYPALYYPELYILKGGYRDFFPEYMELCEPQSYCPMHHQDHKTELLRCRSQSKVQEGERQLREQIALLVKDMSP", "UniProt Q75N03": "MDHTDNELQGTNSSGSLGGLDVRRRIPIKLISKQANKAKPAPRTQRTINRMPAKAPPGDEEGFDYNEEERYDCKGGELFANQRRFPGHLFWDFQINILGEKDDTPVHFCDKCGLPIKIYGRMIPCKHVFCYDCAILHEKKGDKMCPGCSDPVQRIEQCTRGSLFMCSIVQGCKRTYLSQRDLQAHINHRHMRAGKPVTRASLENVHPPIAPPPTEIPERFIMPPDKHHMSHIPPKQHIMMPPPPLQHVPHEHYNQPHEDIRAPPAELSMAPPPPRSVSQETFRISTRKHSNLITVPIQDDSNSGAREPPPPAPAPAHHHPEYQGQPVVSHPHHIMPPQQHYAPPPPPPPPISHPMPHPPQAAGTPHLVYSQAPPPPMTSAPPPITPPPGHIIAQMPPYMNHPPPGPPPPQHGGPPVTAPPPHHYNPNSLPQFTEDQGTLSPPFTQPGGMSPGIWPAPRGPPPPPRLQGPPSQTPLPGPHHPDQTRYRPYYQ", "UniProt Q92526, whole entry, looked up": "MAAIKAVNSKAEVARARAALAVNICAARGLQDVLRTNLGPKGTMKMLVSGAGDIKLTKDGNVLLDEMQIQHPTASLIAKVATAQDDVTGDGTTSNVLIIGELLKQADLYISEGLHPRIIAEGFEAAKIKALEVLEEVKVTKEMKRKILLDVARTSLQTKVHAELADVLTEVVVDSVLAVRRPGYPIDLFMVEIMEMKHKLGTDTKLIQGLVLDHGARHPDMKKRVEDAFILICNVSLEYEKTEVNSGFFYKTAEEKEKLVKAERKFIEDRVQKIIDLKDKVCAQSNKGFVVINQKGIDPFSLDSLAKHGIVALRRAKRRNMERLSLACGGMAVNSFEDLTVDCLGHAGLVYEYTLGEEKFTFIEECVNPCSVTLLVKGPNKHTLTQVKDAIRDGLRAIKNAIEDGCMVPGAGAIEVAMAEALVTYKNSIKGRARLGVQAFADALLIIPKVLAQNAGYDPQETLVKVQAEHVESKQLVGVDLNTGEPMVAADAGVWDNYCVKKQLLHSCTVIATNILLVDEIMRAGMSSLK", "UniProt P24863": "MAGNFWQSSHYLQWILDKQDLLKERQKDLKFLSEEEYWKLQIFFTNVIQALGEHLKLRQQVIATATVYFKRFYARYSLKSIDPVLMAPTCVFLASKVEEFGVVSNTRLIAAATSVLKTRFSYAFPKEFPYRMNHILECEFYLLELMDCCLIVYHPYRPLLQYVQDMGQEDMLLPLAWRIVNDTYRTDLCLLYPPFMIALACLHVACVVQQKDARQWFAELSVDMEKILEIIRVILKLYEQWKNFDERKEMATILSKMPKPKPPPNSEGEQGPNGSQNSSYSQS", "UniProt Q9HC52": "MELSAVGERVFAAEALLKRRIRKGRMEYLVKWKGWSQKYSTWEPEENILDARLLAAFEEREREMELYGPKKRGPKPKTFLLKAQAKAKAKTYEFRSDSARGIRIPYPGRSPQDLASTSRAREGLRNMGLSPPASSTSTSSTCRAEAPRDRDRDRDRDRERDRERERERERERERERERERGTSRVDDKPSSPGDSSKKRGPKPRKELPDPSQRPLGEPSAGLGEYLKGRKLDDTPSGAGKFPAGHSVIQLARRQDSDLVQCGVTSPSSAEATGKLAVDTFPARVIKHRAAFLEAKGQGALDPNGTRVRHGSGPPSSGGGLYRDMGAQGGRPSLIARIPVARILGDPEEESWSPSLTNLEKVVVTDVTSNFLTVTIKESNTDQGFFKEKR", "UniProt Q07108": "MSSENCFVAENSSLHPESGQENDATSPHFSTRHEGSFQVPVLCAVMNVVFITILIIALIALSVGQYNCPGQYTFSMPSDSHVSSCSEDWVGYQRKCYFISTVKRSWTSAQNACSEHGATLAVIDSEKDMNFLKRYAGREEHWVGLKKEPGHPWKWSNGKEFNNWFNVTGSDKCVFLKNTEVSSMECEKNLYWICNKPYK", "UniProt O15234, whole entry, looked up": "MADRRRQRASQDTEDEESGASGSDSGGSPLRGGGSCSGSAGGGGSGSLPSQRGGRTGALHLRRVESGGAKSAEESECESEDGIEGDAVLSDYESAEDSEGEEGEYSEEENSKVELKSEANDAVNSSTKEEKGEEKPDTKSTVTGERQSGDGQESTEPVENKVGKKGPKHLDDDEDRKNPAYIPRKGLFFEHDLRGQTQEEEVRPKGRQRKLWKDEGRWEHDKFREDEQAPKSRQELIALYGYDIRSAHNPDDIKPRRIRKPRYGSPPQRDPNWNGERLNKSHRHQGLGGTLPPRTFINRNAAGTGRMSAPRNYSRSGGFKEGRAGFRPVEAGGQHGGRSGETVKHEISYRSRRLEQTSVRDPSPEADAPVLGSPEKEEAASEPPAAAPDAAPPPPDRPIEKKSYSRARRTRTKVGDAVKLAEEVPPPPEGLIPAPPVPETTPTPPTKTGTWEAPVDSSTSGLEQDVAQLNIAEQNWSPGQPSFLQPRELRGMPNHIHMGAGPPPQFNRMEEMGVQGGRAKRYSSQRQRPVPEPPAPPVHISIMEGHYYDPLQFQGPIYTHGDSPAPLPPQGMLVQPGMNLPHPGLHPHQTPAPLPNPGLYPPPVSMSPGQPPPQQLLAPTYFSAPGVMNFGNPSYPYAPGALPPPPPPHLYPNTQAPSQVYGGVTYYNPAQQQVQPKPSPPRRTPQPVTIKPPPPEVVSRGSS", "UniProt P30279, whole entry, looked up": "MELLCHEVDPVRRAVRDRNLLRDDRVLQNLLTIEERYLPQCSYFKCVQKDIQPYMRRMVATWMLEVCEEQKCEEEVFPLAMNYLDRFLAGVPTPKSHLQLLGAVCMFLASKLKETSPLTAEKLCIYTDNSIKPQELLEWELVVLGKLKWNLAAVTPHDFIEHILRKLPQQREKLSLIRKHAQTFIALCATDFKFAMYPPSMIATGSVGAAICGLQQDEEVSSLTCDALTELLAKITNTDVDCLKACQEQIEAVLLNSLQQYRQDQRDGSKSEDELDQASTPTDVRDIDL", "UniProt P55211": "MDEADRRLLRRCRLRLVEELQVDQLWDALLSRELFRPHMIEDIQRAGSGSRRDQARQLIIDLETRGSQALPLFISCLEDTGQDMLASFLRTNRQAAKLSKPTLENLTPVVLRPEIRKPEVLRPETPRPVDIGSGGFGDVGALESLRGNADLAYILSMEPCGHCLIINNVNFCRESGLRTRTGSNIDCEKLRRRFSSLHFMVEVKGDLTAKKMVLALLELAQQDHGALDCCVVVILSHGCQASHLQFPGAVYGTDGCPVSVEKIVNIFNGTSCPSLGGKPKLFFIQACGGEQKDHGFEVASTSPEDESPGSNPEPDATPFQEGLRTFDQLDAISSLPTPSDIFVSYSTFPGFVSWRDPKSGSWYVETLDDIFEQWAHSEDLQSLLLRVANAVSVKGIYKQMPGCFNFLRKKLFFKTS", "UniProt Q8N9Z2": "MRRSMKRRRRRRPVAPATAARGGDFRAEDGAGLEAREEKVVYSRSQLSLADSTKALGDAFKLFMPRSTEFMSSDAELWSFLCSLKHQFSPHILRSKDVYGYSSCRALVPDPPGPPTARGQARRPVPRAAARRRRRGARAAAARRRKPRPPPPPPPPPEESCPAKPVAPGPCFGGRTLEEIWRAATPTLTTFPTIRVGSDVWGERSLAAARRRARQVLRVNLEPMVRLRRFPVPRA", "UniProt Q9UIB8": "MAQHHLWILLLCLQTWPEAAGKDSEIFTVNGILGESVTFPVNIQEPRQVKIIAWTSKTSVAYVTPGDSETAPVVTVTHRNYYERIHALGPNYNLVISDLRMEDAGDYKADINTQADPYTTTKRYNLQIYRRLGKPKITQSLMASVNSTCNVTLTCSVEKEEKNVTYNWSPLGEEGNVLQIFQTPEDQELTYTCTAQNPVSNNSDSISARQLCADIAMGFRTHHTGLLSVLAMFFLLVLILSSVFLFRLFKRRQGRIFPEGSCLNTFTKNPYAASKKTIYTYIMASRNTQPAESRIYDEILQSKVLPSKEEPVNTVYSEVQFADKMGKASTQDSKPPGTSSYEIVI", "UniProt Q9P0B6": "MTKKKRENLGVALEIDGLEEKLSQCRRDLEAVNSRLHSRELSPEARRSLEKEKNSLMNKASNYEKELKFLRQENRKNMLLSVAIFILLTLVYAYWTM", "UniProt Q96A19": "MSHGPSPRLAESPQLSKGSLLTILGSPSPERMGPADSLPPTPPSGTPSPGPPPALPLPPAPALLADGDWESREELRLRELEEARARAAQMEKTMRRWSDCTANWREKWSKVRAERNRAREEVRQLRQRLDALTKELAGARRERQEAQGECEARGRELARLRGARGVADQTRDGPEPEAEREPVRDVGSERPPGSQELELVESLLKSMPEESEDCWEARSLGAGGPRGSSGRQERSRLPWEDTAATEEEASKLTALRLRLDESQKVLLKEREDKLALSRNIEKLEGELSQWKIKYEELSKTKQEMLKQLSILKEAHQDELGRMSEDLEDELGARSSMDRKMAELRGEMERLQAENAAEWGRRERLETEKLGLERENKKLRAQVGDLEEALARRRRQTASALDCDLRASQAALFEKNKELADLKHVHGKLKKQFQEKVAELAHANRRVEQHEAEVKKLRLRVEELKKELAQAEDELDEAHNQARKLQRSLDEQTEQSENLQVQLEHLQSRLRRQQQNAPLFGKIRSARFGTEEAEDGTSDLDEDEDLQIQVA", "UniProt P30305": "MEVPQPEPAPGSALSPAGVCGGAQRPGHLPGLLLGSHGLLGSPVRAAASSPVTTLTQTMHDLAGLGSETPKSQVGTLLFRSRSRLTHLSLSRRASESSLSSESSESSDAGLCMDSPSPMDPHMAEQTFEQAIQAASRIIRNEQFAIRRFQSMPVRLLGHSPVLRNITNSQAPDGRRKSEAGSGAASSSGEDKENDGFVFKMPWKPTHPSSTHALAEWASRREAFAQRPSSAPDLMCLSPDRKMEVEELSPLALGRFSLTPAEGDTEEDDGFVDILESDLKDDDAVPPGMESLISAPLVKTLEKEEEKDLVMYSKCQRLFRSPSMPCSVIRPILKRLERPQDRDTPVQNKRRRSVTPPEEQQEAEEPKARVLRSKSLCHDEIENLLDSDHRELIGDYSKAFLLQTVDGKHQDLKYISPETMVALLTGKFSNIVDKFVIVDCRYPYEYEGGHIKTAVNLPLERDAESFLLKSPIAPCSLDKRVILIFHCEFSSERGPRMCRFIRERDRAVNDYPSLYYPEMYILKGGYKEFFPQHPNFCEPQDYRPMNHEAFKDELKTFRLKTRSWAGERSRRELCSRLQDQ", "UniProt Q04900": "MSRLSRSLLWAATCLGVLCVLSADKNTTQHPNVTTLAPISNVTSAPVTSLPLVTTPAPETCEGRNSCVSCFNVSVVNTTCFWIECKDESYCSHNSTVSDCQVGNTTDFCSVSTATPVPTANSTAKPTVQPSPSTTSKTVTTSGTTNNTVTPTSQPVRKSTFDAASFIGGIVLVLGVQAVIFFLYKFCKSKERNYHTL"},
  "source": "the supplement of paper PMC10849652",
  "note": "The list shows a part of the results.",
  "data": [
    {"compound": "c1ccc([C@@H]2C[C@H]2NC2CCNCC2)cc1", "assay": "log2 fold change, soluble protein after heating vs DMSO (PISA); higher = thermal stabilisation; K562 cells, 10 uM, 30 min; active = over 0.2 and 3.5 SD of the protein, either way, in both replicates (recomputed)", "outline": "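Values are thermal stability changes relative to control samples and are taken from duplicates. They are stated as log2 fold changes. Before quantification by TMTpro 16plex LC-MS/MS with equalised channel sums, K562 cells at 2×10^6 cells/mL were treated with 10 μM compound for 30 min, heated in aliquots for 3 min across 48°C-58°C, pooled, extracted in PBS with 0.5% NP-40 at 4°C, and centrifuged at 21,000xg for 90 min to give the soluble supernatant.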", "values": [
      {"target": "CD9 (UniProt P21926)", "log2 fold change": "inactive: 0.038"},
      {"target": "CCNYL1 (UniProt Q8N7R7)", "log2 fold change": "inactive: -0.103"},
      {"target": "CD80 (UniProt P33681)", "log2 fold change": "inactive: 0.117"},
      {"target": "CAV1 (UniProt F8WDM7)", "log2 fold change": "inactive: 0.099"},
      {"target": "CDC25C (UniProt P30307)", "log2 fold change": "inactive: 0.144"},
      {"target": "CBLL1 (UniProt Q75N03)", "log2 fold change": "inactive: 0.02"},
      {"target": "CCT6B isoform 3 (UniProt Q92526)", "log2 fold change": "inactive: 0.016"},
      {"target": "CCNC (UniProt P24863)", "log2 fold change": "inactive: -0.037"},
      {"target": "CBX8 (UniProt Q9HC52)", "log2 fold change": "inactive: 0.197"},
      {"target": "CD69 (UniProt Q07108)", "log2 fold change": "inactive: 0.02"},
      {"target": "CCDC158 (UniProt Q5M9N0)", "log2 fold change": "inactive: 0.056"},
      {"target": "CASC3 (UniProt O15234)", "log2 fold change": "inactive: 0.025"},
      {"target": "CCND2 (UniProt P30279)", "log2 fold change": "inactive: -0.16"},
      {"target": "CASP9 (UniProt P55211)", "log2 fold change": "inactive: 0.12"},
      {"target": "CCDC71L isoform 2 (UniProt Q8N9Z2)", "log2 fold change": "inactive: 0.048"},
      {"target": "CARS2 (UniProt Q9HA77)", "log2 fold change": "inactive: -0.008"},
      {"target": "CCDC175 (UniProt P0C221)", "log2 fold change": "inactive: -0.123"},
      {"target": "CDC27 (UniProt G5EA36)", "log2 fold change": "inactive: -0.042"},
      {"target": "CD84 (UniProt Q9UIB8)", "log2 fold change": "inactive: 0.086"},
      {"target": "CDC37 (UniProt K7EL68)", "log2 fold change": "inactive: -0.176"},
      {"target": "CD99 (UniProt P14209)", "log2 fold change": "inactive: 0.004"},
      {"target": "CCDC167 (UniProt Q9P0B6)", "log2 fold change": "inactive: 0.073"},
      {"target": "CCDC102A (UniProt Q96A19)", "log2 fold change": "inactive: 0.078"},
      {"target": "CDC25B isoform 4 (UniProt P30305)", "log2 fold change": "inactive: -0.024"},
      {"target": "CD44 (UniProt P16070)", "log2 fold change": "inactive: -0.009"},
      {"target": "CD164 (UniProt Q04900)", "log2 fold change": "inactive: 0.169"}
    ]}
  ]
}
